In paper PMC7349347:
Results are given in words; binding and its absence hold for the method and conditions named. In cells and extracts the contact can be indirect. Some entries that bind do so weakly or less than the wild type.

Sequences of proteins named here, by UniProt entry; tags and fusion partners are left off.
UniProt P26041: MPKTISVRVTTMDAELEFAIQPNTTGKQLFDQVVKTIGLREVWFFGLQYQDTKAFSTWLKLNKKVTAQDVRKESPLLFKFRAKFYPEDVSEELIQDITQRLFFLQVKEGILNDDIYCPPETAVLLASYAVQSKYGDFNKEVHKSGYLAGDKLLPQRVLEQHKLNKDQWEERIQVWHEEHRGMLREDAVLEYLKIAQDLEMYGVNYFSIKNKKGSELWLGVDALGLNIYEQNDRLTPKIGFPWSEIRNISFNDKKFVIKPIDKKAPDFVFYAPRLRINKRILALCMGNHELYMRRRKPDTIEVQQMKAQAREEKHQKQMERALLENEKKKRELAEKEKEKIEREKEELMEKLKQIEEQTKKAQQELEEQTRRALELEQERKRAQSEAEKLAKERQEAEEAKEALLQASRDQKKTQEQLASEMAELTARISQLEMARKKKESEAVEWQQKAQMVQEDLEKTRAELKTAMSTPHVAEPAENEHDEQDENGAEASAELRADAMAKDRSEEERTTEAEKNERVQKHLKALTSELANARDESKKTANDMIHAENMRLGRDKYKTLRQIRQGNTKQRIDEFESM

What was measured:
[1] = molecular target: moesin (mouse (endogenous in bEND5)) (UniProt P26041); experiment: condition: only cells not induced with latrunculin A; co-IP; as a1 with the moesin antibody, lysate of bEND5 cells not induced to form fenestrae (no latrunculin A)
[2] = molecular target: moesin (mouse (endogenous in bEND5)) (UniProt P26041); experiment: co-IP; endogenous proteins; bEND5 whole-cell lysate (0.025 M Tris, 0.15 M NaCl, 0.001 M EDTA, 1% NP-40, 5% glycerol, pH 7.4), 500 µg protein, precleared, antibody to PV-1, moesin, fodrin or Na,K-α overnight at 4 °C, Protein A/G Agarose, immunoblot; cells treated with vehicle, latrunculin A (time course) or ouabain, or transfected with control or annexin II siRNA

B1: PV-1 (protein, UniProt Q91VC4 1-438)
chain: MGLSMDRSPYARTGDQQRGCWYYLRYFFLFVSLIQFLIILGLVLFMIYGNVHATTESSLRATEIRADSLYSQVVGLSASQANLSKQLNISLLVKETVMQQLLTTRREMERINASFRQCQGDLITYINYNRFIAAIILSEKQCQEQLKEVNKTCEALLFKLGEKVKTLEMEVAKEKAVCSKDKESLLAGKRQTEEQLEACGKARERQQQEQQVTEENLRKVQSLCIPLDQEKFQADVLSAWRDSLIYRTLETLPYHYQLMPEYASLRRTCESLPGIMTTKIEELARGLRAGIERVTRENAELRRQKLELERAAQAAQEARARAGTEAQARETQLRAECARQTQLALEEKAALRAQRDNLERELEARKRELEQLRTEVDVRISALDTCVKAKSLPAVPPRVSGPPPNPPPIDPASLEEFKKRILESQRLPVVNPAAQPSG
- binding [1]: no binding
- binding [2]: binds
